Assay results as given in PMC8319303, “MacroGreen, a simple tool for detection of ADP-ribosylated proteins” (Communications Biology, 2021).
These are yes or no findings as the source states them, for the method shown. Some results given as binding are weak or reduced against the parent protein; the word gives no strength.

Amino acid sequences for entries named in this document (tags omitted). Residues count along the entry.
UniProt P09874, residues 662-1011: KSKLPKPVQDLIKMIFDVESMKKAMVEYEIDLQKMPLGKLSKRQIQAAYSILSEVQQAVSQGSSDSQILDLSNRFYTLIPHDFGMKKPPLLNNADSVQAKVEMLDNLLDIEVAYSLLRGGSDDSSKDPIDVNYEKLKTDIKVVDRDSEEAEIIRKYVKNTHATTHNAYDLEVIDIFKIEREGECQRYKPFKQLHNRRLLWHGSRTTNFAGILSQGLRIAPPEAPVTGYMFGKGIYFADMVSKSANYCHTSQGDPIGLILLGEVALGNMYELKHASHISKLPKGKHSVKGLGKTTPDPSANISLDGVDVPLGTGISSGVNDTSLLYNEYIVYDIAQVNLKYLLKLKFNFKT

Target: PARP1 auto-MAR- and -PARylated in the presence of HPF1 (UniProt P09874)
Experiment: far-Western, overlay or dot blot; overlay in multiwell plates: MAR- or PARylated protein adsorbed to protein binding 96-well plates (MaxiSorp), blocked with 1% BSA, overlaid with the macrodomain-GFP fusion (1 µM in Fig. 2) in TBST pH 7.5 for 5 min at room temperature, washed, GFP fluorescence read; both purified

binding: binds
B1: MacroGreen (Af1521-c007), Af1521 K35E,G42E,I144R,Y145R fused to GFP (other, Archaeoglobus fulgidus, UniProt O28751 1-192, looked up)
chain: MEVLFEAKVGDITLKLAQGDITQYPAKAIVNAANERLEHGGEVAYAIAKACAGDAGLYTEISKKAMREQFGRDYIDHGEVVVTPAMNLEERGIKYVFHTVGPICSGMWSEELKEKLYKAFLGPLEKAEEMGVESIAFPAVSAGRRGCDLEKVVETFLEAVKNFKGSAVKEVALVIYDRKSAEVALKVFERSL
notes: Archaeoglobus fulgidus macrodomain protein Af1521, full length, with K35E, G42E, I144R, Y145R; Synthetic codon-optimised cDNA in a pNIC28 derived vector; also called GFP-fusion quadruple mutant; source: E. coli BL21(DE3)T1R pRARE2, purified (IMAC, SEC); not shown: eGFP, C-terminal, kept
